Data as given in article PMC5803212, “Supramolecular aptamer nano-constructs for receptor-mediated targeting and light-triggered release of chemotherapeutics into cancer cells”.

How the values were obtained:
[1] = biological target: cMet-Fc (HGFR ectodomain fused to human IgG1 Fc) (human) (UniProt P08581); assay: competition filter binding; conditions: SI names it as control competitor, text calls it non-binding variant, Supp Fig 9 legend lists only the L4 mutant; 1x PBS pH 7.4, 2 mM MgCl2, 0.1 mg/mL E. coli tRNA, 0.25 mg/mL BSA, 37 C, 30 min; ~25 fmol 32P-trCLN3, ~50 nM cMet, 25 uL, nitrocellulose filter; commercial protein; single-stranded DNA
[2] = biological target: cMet-Fc (HGFR ectodomain fused to human IgG1 Fc) (human) (UniProt P08581); assay: filter binding; conditions: tracer in competition assay; 1x PBS pH 7.4, 2 mM MgCl2, 0.1 mg/mL E. coli tRNA, 0.25 mg/mL BSA, 37 C, 30 min; ~25 fmol 32P-trCLN3, ~50 nM cMet, 25 uL, nitrocellulose filter; commercial protein; label: 5'-32P; folded or branched DNA
[3] = biological target: cMet-Fc (HGFR ectodomain fused to human IgG1 Fc) (human) (UniProt P08581); assay: cited; conditions: 1x PBS pH 7.4, 2 mM MgCl2, 0.1 mg/mL E. coli tRNA, 0.25 mg/mL BSA, 37 C, 30 min; ~25 fmol 32P-trCLN3, ~50 nM cMet, 25 uL, nitrocellulose filter; commercial protein; folded or branched DNA

“TGGATGATAGCTCGGTCGGGGTGGATGGGTTGGCAAGTCT [trCLN3.mut]”: no binding [1].
“TGGATGGTAGCTCGGTCGGGGTGGGTGGGTTGGCAAGTCT [32P-trCLN3]”: binds [2].
In the case of “TGGATGGTAGCTCGGTCGGGGTGGGTGGGTTGGCAAGTCT [trCLN3]”, the Kd [3] is reported as 38 nM.

For part of these data: A negative result means that nothing was seen under these conditions. For part of these data: At least one verdict rests on a figure or table, not on a statement of the authors. For part of these data: For at least one entry, the source does not settle the construct or the ends of the probe.
